{"source": "patent US8729012", "molecular_target": "gene 5 protein (g5p) (bacteriophage M13) (UniProt P69544)", "experiment": "binding assay", "conditions": "5'-HS-C3H6 on gold nanoparticle; DLS assembly rate dropped dramatically at C-ssDNA fraction above about 0.05; 2.5 uM g5p, 5 nM ssDNA-Au; purified recombinant protein; variant of ssDNA on gold nanoparticles (ssDNA-Au)", "note": "The comparison behind a weaker result is the experiment's own reference, which may not be listed here."}
{"sequence": "TTTTTTTTTTTTTTTTAACCTAACCTTCAT / ATGAAGGTTAGGTTA [ssDNA-Au prehybridized with C-ssDNA]", "values": [{"measurement": "binding result", "value": "binds more weakly"}]}
